Measurements published in PubChem BioAssay AID2685 (National Center for Advancing Translational Sciences (NCATS), 2010).
This is one part of the list. These are further read-outs of the screen, such as a control signal, another cell line or another target. No call is given for them. Compounds called inactive in the main read-out are mostly missing here. Words in brackets tell the shape of the fitted curve; partial curves, single points and poor fits give uncertain potencies.

Experiment: qHTS Assay for Lipid Storage Modulators in Drosophila S3 Cells;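 as to cell number change: cells counted by Cell Tracker Red CMTPX staining in the red channel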
Conditions: BODIPY lipid droplet fluorescence, 18-24 h; for cell number change: measured here: cell count max response, cells fed with added oleic acid
In short: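 Laser-scanning cytometry quantifies lipid droplet accumulation (500–530 nm total intensity; droplet/cell object ratio) in oleic acid-fed (400 uM added) Drosophila S3 cells treated with a concentration series. 20 uM Triacsin C defined 100% inhibition.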

[1] = measured here: lipid fluorescence (Fed channel) AC50, cells fed with added oleic acid
[2] = measured here: cell number channel AC50, cells fed with added oleic acid

SMILES	cell number change [%]	AC50 [1]	AC50 [2]
Cc1ccc(-c2onc3ccc(Cl)cc23)cc1	-15.4	6.51 µM [falling, partial curve, poor fit]	
CCN(Cc1ccccc1)C(=O)c1oc2ccc(C)cc2c1C	-19.2		
CCOC(=O)c1cccc(NC(=O)CCn2cccc2)c1	-16.9		0.00461 µM [falling, full curve, poor fit]
O=C(OCC(=O)N1CCN(C(=O)c2ccco2)CC1)c1ccccc1C(=O)c1ccccc1	-12.5	0.13 µM [falling, full curve]	
Cc1cc(=O)[nH]c(SCC(=O)c2ccc(O)c(O)c2)n1		5.17 µM [rising, partial curve, poor fit]	
Cc1ccc(C2=NN(C(=O)c3ccco3)C(O)(C(F)(F)F)C2)cc1 (stereo not drawn)	-30.8	5.8 µM [falling, full curve]	13 µM [falling, partial curve]
Cn1c(-c2ccccc2)cc2ccccc21		29.1 µM [rising, single point]	
COC(=O)[C@@H]1CC[C@H](C)[C@@H](c2ccc(C)cc2)N1C(=O)c1ccc(/C=N/O[C@@H](C)c2cn([C@H](CO)Cc3ccccc3)nn2)cc1	-0.308	6.51 µM [falling, single point]	3.26 µM [falling, single point]
COc1nn(-c2ccccc2)c(=O)c(Cl)c1Cl		13 µM [falling, partial curve]	
COc1ccc(S(=O)(=O)N(C)C)cc1NC(C)C(=O)Nc1cccc(C#N)c1 (stereo not drawn)	44.5	18.4 µM [rising, single point]	2.31 µM [rising, partial curve]
CS(=O)(=O)c1ccc(-c2cccc(NC(=O)COc3ccccc3)c2)nn1	20.9	4.61 µM [falling, full curve]	
C=CCc1ccc(OCC(O)CN2CCN(Cc3ccc(Cl)cc3)CC2)c(OC)c1 (stereo not drawn)	-82.3	25.9 µM [falling, partial curve]	18.4 µM [falling, single point]
COCCNC(=O)C1(C)Oc2ccccc2NC1=O (stereo not drawn)	-18.7	2.31 µM [falling, full curve]	
COc1ccc(CCC(=O)NCc2cccc(C(F)(F)F)c2)cc1	12.2		
COc1ccccc1C(=O)Nc1nnn(C)n1	-0.977		
CC1=NN(c2ccccc2)C(=O)C1(C)[N+](=O)[O-] (stereo not drawn)	4.15	0.291 µM [rising, full curve, poor fit]	
CN1CCN(S(=O)(=O)c2cccc(C(=O)Nc3ccccc3N3CCCCC3)c2)CC1	29.5	20.6 µM [rising, partial curve]	
CCCOc1ccc(-c2c(C(=O)N/N=C(\C)COc3ccccc3)nnn2-c2nonc2N)cc1	-11.9	0.13 µM [rising, full curve, poor fit]	
Cn1c(=O)n(C)c2cc(N3CCCCC3)c(NC(=O)c3cccc(Cl)c3)cc21	-12.3		
COC(=O)C1C(=O)c2c(n[nH]c2C)CC1(C)C (stereo not drawn)	29	25.9 µM [rising, single point]	
COC(=O)C1CCN(C(=O)COC(=O)c2ccc(=O)n(Cc3ccccc3)n2)CC1	7.41	0.731 µM [falling, full curve]	

Ordered by molar mass (ascending): three of the compounds above
SMILES	cell number change [%]	AC50 [1]	AC50 [2]
COc1nn(-c2ccccc2)c(=O)c(Cl)c1Cl		13 µM [falling, partial curve]	
O=C(OCC(=O)N1CCN(C(=O)c2ccco2)CC1)c1ccccc1C(=O)c1ccccc1	-12.5	0.13 µM [falling, full curve]	
COC(=O)[C@@H]1CC[C@H](C)[C@@H](c2ccc(C)cc2)N1C(=O)c1ccc(/C=N/O[C@@H](C)c2cn([C@H](CO)Cc3ccccc3)nn2)cc1	-0.308	6.51 µM [falling, single point]	3.26 µM [falling, single point]

Following part

SMILES	cell number change [%]	AC50 [1]	AC50 [2]
O=C(CN1C(=O)C2CCCCC2C1=O)Nc1ccccc1C(=O)O (stereo not drawn)		20.6 µM [rising, partial curve]	
COc1ccc(/C=N/n2c(C)nc3ccccc3c2=O)cc1	-6.85	8.2 µM [falling, partial curve, poor fit]	
Cn1c(SCc2nc3ccccc3[nH]2)nnc1-c1cnccn1	-7.8		
CCN(CC(=O)NC1CCS(=O)(=O)C1)S(=O)(=O)c1ccc(C)c(C)c1 (stereo not drawn)	133		20.6 µM [rising, single point]
CC(=O)N1CCN(S(=O)(=O)c2cccc(C(=O)NCCc3ccc(Cl)cc3)c2)CC1		0.651 µM [falling, single point]	
CCC(=O)c1cc(F)ccc1OCC(=O)Nc1ccc2c(c1)OCCO2	8.2	25.9 µM [falling, partial curve, poor fit]	
Cc1cc(C)n(-c2nc(SCCN(C)C)c3c4c(sc3n2)CCCC4)n1	-22.9	6.51 µM [falling, single point]	
Cc1c(C(=O)NCc2ccccc2CN2CCCC2)oc2ccc(F)cc12	13.3	29.1 µM [rising, single point]	
CCOc1ccc(NS(=O)(=O)c2cc(C(=O)N3CCN(c4ccccc4O)CC3)ccc2Cl)cc1	48.1		9.2 µM [rising, partial curve, poor fit]
CCN(CC)c1ccc(C(=O)NNC(=O)C2CSC3(C)CCC(=O)N23)cc1 (stereo not drawn)	-2.2	0.651 µM [rising, full curve, poor fit]	
CO/N=C/c1ccc(N2CCCC2)c([N+](=O)[O-])c1	-16.4		0.00461 µM [rising, full curve, poor fit]
COc1ccc(Cl)cc1NC(=S)NCc1ccc(S(N)(=O)=O)cc1	-19.3		
CC(=O)c1cccc(NC(=O)Cn2nc(-c3ccccc3Cl)ccc2=O)c1	-7.45		
O=S(=O)(c1ccc(NC(=S)NCCc2ccccc2)cc1)N1CCOCC1	24.2	2.59 µM [rising, full curve]	
Cc1nc2sccn2c(=O)c1Cl	-9.51	0.00461 µM [rising, full curve, poor fit]	
CC(C)CN(C(=O)C1CCCO1)c1c(N)n(CC(C)C)c(=O)[nH]c1=O (stereo not drawn)	-86.6	1.03 µM [falling, partial curve]	5.8 µM [falling, full curve]
Cc1ccc(CNC(=O)c2ccccc2N)cc1	13.6	29.1 µM [rising, single point]	
COC(=O)CCC(=O)Nc1ccc(S(=O)(=O)Nc2nc(C)cc(C)n2)cc1	23	29.1 µM [rising, single point]	
O=C(COC(=O)c1ccccc1OCc1ccccc1Cl)NC1CC1	-1.67		
O=C(NC1CCN(C(=O)Nc2cccc(Cl)c2)CC1)c1ccccc1	3.91	6.51 µM [rising, single point]	
COc1cccc(-c2nc(-c3ccccc3)c(-c3ccccc3)[nH]2)c1OCC(=O)O	-7.72		

SMILES	cell number change [%]	AC50 [1]	AC50 [2]
Cc1ccc(Nc2c([N+](=O)[O-])c(=O)n(C)c3ccccc23)cc1C		0.92 µM [rising, full curve]	
CCN(CC(=O)Nc1cccc(F)c1)CC(=O)Nc1ccccc1OC	30.5	29.1 µM [rising, partial curve, poor fit]	0.164 µM [rising, partial curve, poor fit]
O=C(CCc1nnc(CCCCc2ccccc2)o1)NCCN1CCOC1=O	-48.9	20.6 µM [falling, single point]	20.6 µM [falling, partial curve]
O=C(NNC(=S)NC(=O)c1cccc([N+](=O)[O-])c1)c1ccc(Br)cc1	5.41		
CC(C)C(=O)Nc1cccc(NC(=S)NC(=O)c2cccs2)c1	22.4	0.651 µM [rising, single point]	
O=C(Nc1ccc(Cl)c(Cl)c1)Nc1ccc([N+](=O)[O-])cn1	-24.7	29.1 µM [falling, single point]	
CC(C)CNC(=O)COC(=O)c1c2c(nc3ccccc13)/C(=C/c1cccs1)CC2	-43	0.651 µM [falling, full curve]	0.58 µM [falling, full curve]
O=C(NCCCn1ccnc1)/C(=C\c1cccnc1)NC(=O)c1ccccc1Br	1.88		
CCn1nc(C)c(NC(=O)c2ccc(Br)o2)c1C	-21.8	29.1 µM [rising, single point]	
COc1cc(C(=O)Nc2cc(C)ccn2)cc(OC)c1OC		0.13 µM [falling, full curve, poor fit]	
Cc1ccc(-c2ccc(CCC(=O)O)n2CC2CCCO2)cc1 (stereo not drawn)	25	1.16 µM [rising, full curve, poor fit]	
O=C(O)c1ccc(S(=O)(=O)Nc2ccc3c(c2)OCCO3)cc1	-19.8		
COc1ccc(CCN2C(=O)C3C4C=CC(C4)C3C2=O)cc1OC (stereo not drawn)	7.71	16.4 µM [falling, partial curve]	
O=C1CSC(c2cccc([N+](=O)[O-])c2)N1c1ccccc1 (stereo not drawn)	-63.9	29.1 µM [falling, single point]	2.06 µM [falling, partial curve]
C=CCn1c(SCc2ccc(C#N)cc2)nnc1-c1cccc(Cl)c1		0.58 µM [rising, single point]	4.11 µM [rising, single point]
O=C(NNS(=O)(=O)c1ccccc1[N+](=O)[O-])c1cccc(Br)c1	-23.6	29.1 µM [rising, single point]	
CCOC(=O)N1CCN(C(=O)/C(=C\c2cccs2)NC(=O)c2cccs2)CC1	-1.59		
CCCCn1c(N)c(N(CC(C)C)C(=O)c2cc3c(s2)CCCCC3)c(=O)[nH]c1=O	34.4		29.1 µM [rising, single point]
Cc1nn(Cc2ccc(Cl)cc2)c(C)c1NC(=O)c1cc(-c2ccc3c(c2)OCO3)on1	-30.1	0.0651 µM [rising, full curve, poor fit]	29.1 µM [falling, single point]
O=C(Nc1ccccc1)c1cccnc1N1CCOCC1		0.366 µM [falling, full curve, poor fit]	
